These are yes or no findings as the source states them, for the method shown. Binding seen in cells or lysates may run through a third protein. Binding can be weak; no strength is given. Sequences can lack the tags named with a protein.
Target: T1, FLAG-NAT10 (pICE-FLAG-NAT10-siR-WT) in SCC-4 cells (UniProt Q9H0A0)
T1 sequence: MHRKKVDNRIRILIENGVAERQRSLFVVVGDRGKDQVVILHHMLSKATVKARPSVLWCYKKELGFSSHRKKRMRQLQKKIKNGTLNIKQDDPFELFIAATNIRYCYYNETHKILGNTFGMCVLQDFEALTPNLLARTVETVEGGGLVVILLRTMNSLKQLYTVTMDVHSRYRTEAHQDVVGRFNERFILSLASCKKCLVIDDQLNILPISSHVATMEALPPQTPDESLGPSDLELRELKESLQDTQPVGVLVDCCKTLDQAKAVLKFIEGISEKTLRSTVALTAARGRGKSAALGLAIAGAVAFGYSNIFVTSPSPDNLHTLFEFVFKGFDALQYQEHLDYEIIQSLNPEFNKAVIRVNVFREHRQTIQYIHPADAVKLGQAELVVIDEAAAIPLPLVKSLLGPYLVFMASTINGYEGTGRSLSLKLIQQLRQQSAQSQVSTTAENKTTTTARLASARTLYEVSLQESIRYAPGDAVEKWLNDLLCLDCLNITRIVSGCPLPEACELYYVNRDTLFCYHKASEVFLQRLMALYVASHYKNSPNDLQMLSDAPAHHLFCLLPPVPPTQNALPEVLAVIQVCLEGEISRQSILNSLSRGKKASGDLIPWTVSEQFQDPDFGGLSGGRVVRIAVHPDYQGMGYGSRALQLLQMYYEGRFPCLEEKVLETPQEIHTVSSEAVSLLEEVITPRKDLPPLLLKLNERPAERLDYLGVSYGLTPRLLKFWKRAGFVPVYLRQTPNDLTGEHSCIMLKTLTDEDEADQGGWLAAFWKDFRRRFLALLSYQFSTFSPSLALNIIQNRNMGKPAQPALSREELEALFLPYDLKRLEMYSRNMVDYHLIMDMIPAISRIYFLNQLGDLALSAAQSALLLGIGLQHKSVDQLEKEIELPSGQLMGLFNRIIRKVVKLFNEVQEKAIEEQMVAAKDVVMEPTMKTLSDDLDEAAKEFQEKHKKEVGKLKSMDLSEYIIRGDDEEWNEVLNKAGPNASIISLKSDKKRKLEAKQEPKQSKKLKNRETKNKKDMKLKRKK
Test: co-IP; SCC-4 cells co-transfected with pICE-FLAG-NAT10-siR-WT and pcDNA3.1-HA-RNPS1 variants; lysate after 24-48 h immunoprecipitated with anti-Flag antibody and Protein A/G magnetic beads, detected with anti-HA antibody

binding | Substance
binds | HA-tagged RNPS1 N-terminal region with the serine-rich domain (NT+S) (domain or fragment)
binds | HA-tagged RNPS1 without the arginine/serine/proline-rich domain (ΔRS/P) (domain or fragment)
